# PubChem BioAssay AID445 (National Center for Advancing Translational Sciences (NCATS), 2006)
# The list shows a part of the results. The main result of the screen is listed elsewhere. These columns were measured beside it and carry no call. Most of these compounds were active or inconclusive in the main read-out, so they are no random draw. The note in brackets gives the kind of curve behind each potency; many fits are weak.
# Assay: IkB Signaling
# Details: ABC-DLBCL IkBa-CBG/CBR dual luciferase ratio (green luciferase fused to IkBa over red control in OCI-Ly3 lymphoma cells), 4 h; measured here: control luc red channel unless noted
# Outline: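 Luminescence ratio of IκBα-fused green versus native red beetle luciferase in OCI-Ly3 cells, 4 h post-doxycycline with compound; red signal alone, scaled from basal (0%) to zero light (-100%), flagged nonspecific or cytotoxic effects.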
row,SMILES,AC50
1,COCCNc1nc2c(c(=O)n(Cc3cccc(Cl)c3)c(=O)n2C)n1C,"31.6 µM [falling, partial curve]"
2,COc1ccc(OCC(=O)Nc2c(C(=O)N3CCN(c4ccccc4)CC3)oc3ccccc23)cc1,"10 µM [falling, partial curve, poor fit]"
3,Brc1ccc2ncnc(Nc3ccc(N4CCOCC4)cc3)c2c1,"6.31 µM [falling, partial curve]"
4,CCCCN1CCCc2cc(CN(CCCN3CCOCC3)C(=O)Nc3ccc(CC)cc3)ccc21,"10 µM [falling, partial curve]"
5,CCOC(=O)c1c(-c2ccc(OC)c(OC)c2)csc1NC(=O)c1ccc(C)cc1,"12.6 µM [falling, partial curve]"
6,O=C(NCc1ccc(F)cc1)c1cc2cccc3c2n1CCS3,"25.1 µM [falling, single point]"
7,COc1ccc(S(=O)(=O)N(CC(=O)NCCSc2ccccc2)c2ccc(C)cc2)cc1,"3.98 µM [falling, full curve]"
8,CCOC(=O)c1cc(-c2ccccc2)n(CCC(=O)NCCc2cccc(C)c2)c1C,"25.1 µM [falling, single point]"
9,CCOc1ccccc1CNC(=O)CCC(=O)N1CCSc2ccccc21,"20 µM [falling, partial curve]"
10,CCCN(CCC)C(=O)CSc1c2c(nc3ccc(Cl)cc13)CCCC2,"10 µM [falling, partial curve]"
11,O=C(c1cc(-c2ccccc2O)on1)N1CCCC1,"6.31 µM [falling, partial curve]"
12,Cc1ccc(S(=O)(=O)N2CCCC2C(=O)Nc2nc3ccccc3s2)cc1 (centres undefined),"15.8 µM [falling, partial curve]"
13,Cc1ccc(C)c(NC(=O)C(Cc2ccccc2)n2cccc2)c1 (centres undefined),"20 µM [falling, single point]"
14,COc1ccc(OC)c(NC(=O)Cn2c(=O)n(Cc3ccco3)c(=O)c3cc(OC)c(OC)cc32)c1,"5.01 µM [falling, partial curve]"
15,Brc1ccc(Nc2c3c(nc4nncn24)CCC3)cc1,"31.6 µM [rising, single point]"
16,COc1ccc(Nc2nnc(-c3ccc(C)c(S(=O)(=O)NCc4nc5ccccc5[nH]4)c3)c3ccccc23)cc1,"6.31 µM [falling, partial curve]"
17,Cc1ccc(NC(=O)Cn2nnc(C(=O)NCCc3ccccc3)c2N)cc1,"20 µM [falling, single point]"
18,O=C(NCc1ccc(Cl)cc1)c1ccc2c(c1)NC(=O)C(CS(=O)(=O)Cc1ccc(F)cc1Cl)N2 (centres undefined),"15.8 µM [falling, partial curve, poor fit]"
19,O=C(COC(=O)c1ccc(Br)o1)Nc1nc2ccccc2s1,"12.6 µM [falling, partial curve]"
20,COc1ccc(C)cc1NC(=O)c1cc2ccccn2n1,"0.251 µM [rising, full curve]"
21,CCc1ccc(NC(=O)C2CCCN(S(=O)(=O)c3cccc4nsnc34)C2)cc1 (centres undefined),"31.6 µM [falling, single point]"
22,CCN(C(=O)CCc1nc(-c2ccc(C)cc2)no1)c1cccc(Cl)c1,"25.1 µM [falling, partial curve]"

# Sorted by number of heavy atoms (falling): 13 of the compounds above
row,SMILES,AC50
16,COc1ccc(Nc2nnc(-c3ccc(C)c(S(=O)(=O)NCc4nc5ccccc5[nH]4)c3)c3ccccc23)cc1,"6.31 µM [falling, partial curve]"
14,COc1ccc(OC)c(NC(=O)Cn2c(=O)n(Cc3ccco3)c(=O)c3cc(OC)c(OC)cc32)c1,"5.01 µM [falling, partial curve]"
18,O=C(NCc1ccc(Cl)cc1)c1ccc2c(c1)NC(=O)C(CS(=O)(=O)Cc1ccc(F)cc1Cl)N2 (centres undefined),"15.8 µM [falling, partial curve, poor fit]"
7,COc1ccc(S(=O)(=O)N(CC(=O)NCCSc2ccccc2)c2ccc(C)cc2)cc1,"3.98 µM [falling, full curve]"
8,CCOC(=O)c1cc(-c2ccccc2)n(CCC(=O)NCCc2cccc(C)c2)c1C,"25.1 µM [falling, single point]"
12,Cc1ccc(S(=O)(=O)N2CCCC2C(=O)Nc2nc3ccccc3s2)cc1 (centres undefined),"15.8 µM [falling, partial curve]"
22,CCN(C(=O)CCc1nc(-c2ccc(C)cc2)no1)c1cccc(Cl)c1,"25.1 µM [falling, partial curve]"
3,Brc1ccc2ncnc(Nc3ccc(N4CCOCC4)cc3)c2c1,"6.31 µM [falling, partial curve]"
6,O=C(NCc1ccc(F)cc1)c1cc2cccc3c2n1CCS3,"25.1 µM [falling, single point]"
19,O=C(COC(=O)c1ccc(Br)o1)Nc1nc2ccccc2s1,"12.6 µM [falling, partial curve]"
20,COc1ccc(C)cc1NC(=O)c1cc2ccccn2n1,"0.251 µM [rising, full curve]"
15,Brc1ccc(Nc2c3c(nc4nncn24)CCC3)cc1,"31.6 µM [rising, single point]"
11,O=C(c1cc(-c2ccccc2O)on1)N1CCCC1,"6.31 µM [falling, partial curve]"

# (cont.)

row,SMILES,AC50
1,COC(=O)c1cc2sccc2n1CC(=O)Nc1ccc(C)cc1C,"3.98 µM [rising, partial curve]"
2,CC(C)C[C@H](N)c1nnc(S(=O)(=O)Cc2ccc(F)cc2)o1,"10 µM [falling, partial curve]"
3,COc1ccc(-c2cc(C(=O)Nc3cnn(Cc4ccccc4C)c3)no2)cc1OC,"3.98 µM [falling, partial curve]"
4,COc1cccc(CNC(=O)c2ccc3nc(-c4ccccc4)c(-c4ccccc4)nc3c2)c1OC,"7.94 µM [falling, partial curve]"
5,CCC1CCCCN1C(=O)CSc1nnc(-c2c[nH]c3ccccc23)o1 (centres undefined),"31.6 µM [falling, single point]"
6,Cc1cc(C)n(-c2nc3ccccc3n3nnnc23)n1,"3.98 µM [falling, partial curve]"
7,CCc1nnc(SCc2nc(-c3cccc(Cl)c3)oc2C)c2cc3sc(C)cc3n12,"0.501 µM [rising, full curve]"
8,O=C1CN(C(=O)CCCc2c[nH]c3ccccc23)c2ccccc2N1,"25.1 µM [falling, partial curve]"
9,COc1ccc(Cl)cc1NC(=O)CCn1c(=O)c2cccn2c2ccccc21,"12.6 µM [falling, partial curve]"
10,Cc1ccccc1C(=O)NCc1nc(-c2ccc(Cl)cc2)no1,"0.794 µM [rising, full curve]"
11,Cc1ccc(NC(=O)c2c(C)nc3sc(C(=O)Nc4ccc(F)cc4)c(N)c3c2-c2ccc(Cl)cc2)c(C)c1,"3.16 µM [falling, partial curve]"
12,Cc1cccc(CN2C(=O)c3ccccc3S(=O)(=O)c3ccc(C(=O)N(C)Cc4ccccc4)cc32)c1,"10 µM [falling, partial curve]"
13,OC(c1cccc(OCc2ccccc2)c1)c1nnc(-c2ccccc2)o1 (centres undefined),"20 µM [falling, partial curve]"
14,Cc1ccc(Nc2c(-c3ccc(N4CCOCC4)cc3)nc3cccc(C)n23)cc1,"0.0501 µM [falling, full curve, poor fit]"
15,COc1cc2c(cc1OC)-c1cc(Nc3ccc4c(c3)OCCO4)nc(=O)n1CC2,"2 µM [falling, full curve]"
16,CCC1C(O)=C(c2ccccn2)C(=N)N1c1ccccc1 (centres undefined),"1.58 µM [falling, full curve, poor fit]"
17,CCOC(=O)c1ccc(NC2(c3ccccc3)C(=O)c3ccccc3C2=O)cc1,"20 µM [falling, single point]"
18,COc1cccc(Cn2c(Oc3cccc(C)c3)nc3c2c(=O)n(C)c(=O)n3C)c1,"25.1 µM [falling, partial curve]"
19,CCOC(=O)c1ccc(NC(=O)c2sc3ccccc3c2Cl)cc1,"0.0316 µM [falling, full curve]"
20,Cc1ccc(-c2cc(-c3ccc(Cl)cc3)c(C#N)c(N)n2)o1,"10 µM [falling, partial curve]"
21,O=c1c2ccccc2n(Cc2cccc(Cl)c2)c(=O)n1CCc1ccccc1,"39.8 µM [falling, single point]"
22,CC(=O)NCCc1nc2ccccc2n1CCCCOc1ccc(Cl)cc1,"15.8 µM [falling, partial curve]"

row,SMILES,AC50
1,COc1cccc2cc(-c3nc4sc(C(=O)Nc5ccc(F)cc5F)c(C)c4c(=O)[nH]3)c(=O)oc12,"5.01 µM [rising, partial curve]"
2,O=C(Nc1nnc(C2CC2)s1)c1cc(-c2ccccc2)nn1-c1ccccc1,"20 µM [falling, partial curve]"
3,Cc1ccc(C)c(N2CCN(c3ncnc4onc(C)c34)CC2)c1,"25.1 µM [falling, partial curve]"
4,COc1ccccc1CCNC(=O)Cc1c(C)c2ccc(O)cc2oc1=O,"12.6 µM [falling, partial curve]"
5,CC(=O)Nc1nonc1-c1nnc(SCC(=O)Nc2cc(C)ccc2C)n1-c1ccccc1,"3.16 µM [falling, single point]"
6,Cc1cccc(CC(=O)NC2CC(=O)N(c3cccc(F)c3)C2)c1 (centres undefined),"0.794 µM [falling, partial curve]"
7,O=C(NC(Cc1ccccc1)c1nc2ccccc2[nH]1)C1CC(=O)N(c2ccc3c(c2)OCCO3)C1 (centres undefined),"15.8 µM [falling, partial curve]"
8,COc1ccc(OC)c(NC(=O)C2CCN(S(=O)(=O)c3ccc(C)cc3)CC2)c1,"1.26 µM [falling, full curve]"
9,COCCNC(=O)CSc1nc(-c2ccc(F)cc2)[nH]c1-c1ccc(Cl)cc1,"20 µM [falling, single point]"
10,Cc1cc(C)cc(OCC(=O)Nc2cccc(-c3nc4ncccc4o3)c2)c1,"5.01 µM [falling, full curve]"
11,CCOc1ccc(C(=O)Nc2ccc(S(=O)(=O)N(Cc3ccccc3)c3ccccc3)cc2)cc1,"1.26 µM [falling, full curve, poor fit]"
12,O=C(c1ccco1)N1CCN(c2ncnc3sc4c(c23)CCC4)CC1,"25.1 µM [falling, partial curve]"
13,O=C(CSc1nc2cc3ccccc3cc2[nH]1)Nc1cccc(C(F)(F)F)c1,"20 µM [falling, single point]"
14,COc1ccc(NC(=O)C(=O)NCCc2ccccc2)cc1OC,"10 µM [rising, partial curve]"
15,CN1/C(=C\C(=O)c2ccco2)C(C)(C)c2ccccc21,"25.1 µM [falling, single point]"
16,CC(C)c1ccc(NC(=O)C2CCCN(S(=O)(=O)c3ccc(Br)s3)C2)cc1 (centres undefined),"31.6 µM [falling, partial curve, poor fit]"
17,CCc1ccc(NS(=O)(=O)c2ccc3[nH]cc(C(=O)NC4CCCC4)c(=O)c3c2)cc1,"10 µM [falling, partial curve]"
18,COc1ccc(-n2cc(-c3ccccc3)c3c(SC(C)C(C)=O)ncnc32)cc1 (centres undefined),"10 µM [falling, partial curve]"
19,Fc1ccc(-c2cc(-c3nc(-c4cccc(Cl)c4)no3)[nH]n2)cc1,"0.251 µM [falling, full curve]"
20,CCOC(=O)c1c(N)sc(C(=O)Nc2ccc3c(c2)OCO3)c1C,"10 µM [falling, partial curve]"
